PubChem BioAssay AID602196, INSERM – 2012

Assay: 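Knock-downs that protect lung cancer cells from cisplatin or sensitise them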
System: human A549 lung cancer cells
Knock-down reagent: siRNA pair against human genes
Duration: 48 h transfection before cisplatin; time from cisplatin to read-out not stated
Treatment: cisplatin at a dose killing half of control-siRNA cells; exact dose and duration not given
Read-out: 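Shift in cisplatin death relative to control siRNA, from -50 (all cells die) to +50 (no cells die); siRNAs harmful on their own scored 0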
Direction: two-siRNA summed score (-2 to +2): higher = both siRNAs protect from cisplatin killing; -2 means both sensitise
Call rule: 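Each siRNA scores 0 if harmful alone by LDH or WST-1, otherwise +1 if it reduces and -1 if it increases cisplatin killing; a gene is active when both siRNAs agree (sum +2 or -2)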
Meaning of the calls: active = both siRNAs shift cisplatin killing the same way; inactive = no consistent shift, or siRNA harmful alone
In all, the deposit lists about 23,000 reagents; below is a random part of them. 455 of them (2%) were called active. 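Active includes both protection and sensitisation; some change values fall well beyond the stated -50 to +50 range.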 Not all columns of the deposit are shown. The record does not give: the amount of reagent.

Target gene | two-siRNA summed score (-2 to +2) | call
ZIK1 | 0 | inactive
PLEKHA2 | 1 | inactive
ZNF598 | 0 | inactive
NUDT21 | 0 | inactive
LOC399972 | 0 | inactive
GREB1L | 0 | inactive
SRSF3 | 1 | inactive
ACER3 | 0 | inactive
CBL | 0 | inactive
SPECC1 | 0 | inactive
ACSF3 | 0 | inactive
PVT1 | 0 | inactive
BICD1 | 0 | inactive
LOC388189 | -1 | inactive
LOC440245 | 1 | inactive
LOC143034 | 0 | inactive
SLC4A1 | 0 | inactive
KRT6B | 0 | inactive
METTL15 | -1 | inactive
TAB2 | 1 | inactive
LOC440380 | 1 | inactive
LINC00487 | 0 | inactive
LOC149478 | 0 | inactive
SALL4 | 0 | inactive
ITPR1 | 0 | inactive
PYCR3 | -1 | inactive
MAGEB6B | 0 | inactive
SERPINA3 | -1 | inactive
FBXW10 | 1 | inactive
RAD1 | 0 | inactive
WASHC4 | 1 | inactive
DNAAF10 | 0 | inactive
SI | 0 | inactive
PPP1CC | -1 | inactive
CSF2RB | 0 | inactive
SLC67A2 | 0 | inactive
FAXDC2 | 1 | inactive
LOC440616 | 0 | inactive
PHTF1 | 2 | active

Records listed above with an active call:
Target gene | two-siRNA summed score (-2 to +2) | call
PHTF1 | 2 | active
